Laboratory results taken from doi:10.64898/2025.12.17.694855.

T1: Lsm1-TAP (S. cerevisiae) (UniProt P47017)
T1 sequence: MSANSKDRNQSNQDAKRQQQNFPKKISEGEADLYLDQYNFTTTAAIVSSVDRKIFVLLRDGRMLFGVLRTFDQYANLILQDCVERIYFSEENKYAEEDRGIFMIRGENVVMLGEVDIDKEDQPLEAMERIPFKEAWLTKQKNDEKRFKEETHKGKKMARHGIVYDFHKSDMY

T2: Dcp1-TAP (S. cerevisiae) (UniProt Q12517)
T2 sequence: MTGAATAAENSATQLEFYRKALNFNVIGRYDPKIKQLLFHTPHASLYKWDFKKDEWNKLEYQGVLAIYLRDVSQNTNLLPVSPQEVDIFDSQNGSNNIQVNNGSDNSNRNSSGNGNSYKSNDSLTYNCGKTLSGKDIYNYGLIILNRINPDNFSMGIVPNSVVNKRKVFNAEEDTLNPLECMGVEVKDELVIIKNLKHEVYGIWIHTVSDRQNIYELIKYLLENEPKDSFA


Key:
Lsm1-TAP (S. cerevisiae) = target: T1, Lsm1-TAP (S. cerevisiae); test: affinity purification with mass spectrometry
Dcp1-TAP (S. cerevisiae) = target: T2, Dcp1-TAP (S. cerevisiae); test: affinity purification with mass spectrometry

binding (Lsm1-TAP (S. cerevisiae))	binding (Dcp1-TAP (S. cerevisiae))	Binder
binds	binds	Lsm5 (protein, UniProt P40089 1-93) MSLPEILPLEVIDKTINQKVLIVLQSNREFEGTLVGFDDFVNVILEDAVEWLIDPEDESRNEKVMQHHGRMLLSGNNIAILVPGGKKTPTEAL
binds		Pat1 (protein, UniProt P25644 1-796) MSFFGLENSGNARDGPLDFEESYKGYGEHELEENDYLNDETFGDNVQVGTDFDFGNPHSSGSSGNAIGGNGVGATARSYVAATAEGISGPRTDGTAAAGPLDLKPMESLWSTAPPPAMAPSPQSTMAPAPAPQQMAPLQPILSMQDLERQQRQMQQQFMNFHAMGHPQGLPQGPPQQQFPMQPASGQPGPSQFAPPPPPPGVNVNMNQMPMGPVQVPVQASPSPIGMSNTPSPGPVVGATKMPLQSGRRSKRDLSPEEQRRLQIRHAKVEKILKYSGLMTPRDKDFITRYQLSQIVTEDPYNEDFYFQVYKIIQRGGITSESNKGLIARAYLEHSGHRLGGRYKRTDIALQRMQSQVEKAVTVAKERPSKLKDQQAAAGNSSQDNKQANTVLGKISSTLNSKNPRRQLQIPRQQPSDPDALKDVTDSLTNVDLASSGSSSTGSSAAAVASKQRRRSSYAFNNGNGATNLNKSGGKKFILELIETVYEEILDLEANLRNGQQTDSTAMWEALHIDDSSYDVNPFISMLSFDKGIKIMPRIFNFLDKQQKLKILQKIFNELSHLQIIILSSYKTTPKPTLTQLKKVDLFQMIILKIIVSFLSNNSNFIEIMGLLLQLIRNNNVSFLTTSKIGLNLITILISRAALIKQDSSRSNILSSPEISTWNEIYDKLFTSLESKIQLIFPPREYNDHIMRLQNDKFMDEAYIWQFLASLALSGKLNHQRIIIDEVRDEIFATINEAETLQKKEKELSVLPQRSQELDTELKSIIYNKEKLYQDLNLFLNVMGLVYRDGEISELK
binds		Lsm6 (protein, UniProt Q06406 1-86) MSGKASTEGSVTTEFLSDIIGKTVNVKLASGLLYSGRLESIDGFMNVALSSATEHYESNNNKLLNKFNSDVFLRGTQVMYISEQKI
binds	binds	Lsm4 (protein, UniProt P40070 1-187) MLPLYLLTNAKGQQMQIELKNGEIIQGILTNVDNWMNLTLSNVTEYSEESAINSEDNAESSKAVKLNEIYIRGTFIKFIKLQDNIIDKVKQQINSNNNSNSNGPGHKRYYNNRDSNNNRGNYNRRNNNNGNSNRRPYSQNRQYNNSNSSNINNSINSINSNNQNMNNGLGGSVQHHFNSSSPQKVEF
binds	binds	Upf1 (protein, UniProt P30771 1-971) MVGSGSHTPYDISNSPSDVNVQPATQLNSTLVEDDDVDNQLFEEAQVTETGFRSPSASDNSCAYCGIDSAKCVIKCNSCKKWFCNTKNGTSSSHIVNHLVLSHHNVVSLHPDSDLGDTVLECYNCGRKNVFLLGFVSAKSEAVVVLLCRIPCAQTKNANWDTDQWQPLIEDRQLLSWVAEQPTEEEKLKARLITPSQISKLEAKWRSNKDATINDIDAPEEQEAIPPLLLRYQDAYEYQRSYGPLIKLEADYDKQLKESQALEHISVSWSLALNNRHLASFTLSTFESNELKVAIGDEMILWYSGMQHPDWEGRGYIVRLPNSFQDTFTLELKPSKTPPPTHLTTGFTAEFIWKGTSYDRMQDALKKFAIDKKSISGYLYYKILGHQVVDISFDVPLPKEFSIPNFAQLNSSQSNAVSHVLQRPLSLIQGPPGTGKTVTSATIVYHLSKIHKDRILVCAPSNVAVDHLAAKLRDLGLKVVRLTAKSREDVESSVSNLALHNLVGRGAKGELKNLLKLKDEVGELSASDTKRFVKLVRKTEAEILNKADVVCCTCVGAGDKRLDTKFRTVLIDESTQASEPECLIPIVKGAKQVILVGDHQQLGPVILERKAADAGLKQSLFERLISLGHVPIRLEVQYRMNPYLSEFPSNMFYEGSLQNGVTIEQRTVPNSKFPWPIRGIPMMFWANYGREEISANGTSFLNRIEAMNCERIITKLFRDGVKPEQIGVITPYEGQRAYILQYMQMNGSLDKDLYIKVEVASVDAFQGREKDYIILSCVRANEQQAIGFLRDPRRLNVGLTRAKYGLVILGNPRSLARNTLWNHLLIHFREKGCLVEGTLDNLQLCTVQLVRPQPRKTERPMNAQFNVESEMGDFPKFQDFDAQSMVSFSGQIGDFGNAFVDNTELSSYINNEYWNFENFKSAFSQKQNRNEIDDRNLYQEEASHLNSNFARELQREEQKHELSKDFSNLGI
binds	binds	Pby1 (protein, UniProt P38254 1-753) MRVLITNDDGPLSDQFSPYIRPFIQHIKRNYPEWKITVCVPHVQKSWVGKAHLAGKNLTAQFIYSKVDAEDNTFWGPFIQPQIRSENSKLPYVLNAEIPKDTIEWILIDGTPASCANIGLHLLSNEPFDLVLSGPNVGRNTSAAYITSSGTVGGAMESVITGNTKAIAISWAYFNGLKNVSPLLMEKASKRSLDVIKHLVKNWDPKTDLYSINIPLVESLSDDTKVYYAPIWENRWIPIFNGPHINLENSFAEIEDGNESSSISFNWAPKFGAHKDSIHYMDEYKDRTVLTDAEVIESEMISVTPMKATFKGVNHLLGELKLTEEENNLSKTNNLIVVSIDPMEYIYKPLTHALKKYLPQVEIVSNLPEFDNGGCEKEMKVFHYGDYEQLDMDKLMELPNNYFTNSYIYRKALIRKHFLSHTIQTYTAKNPESILKKAYLESFTIDLDYAEFLDDALDENWELRQELENESQDKWWIVKPSMSDKGQGIRVFKTIEDLQAIFDSFDDEDSEAEESGNDDDADDVNGEFMDNNKVNISQLRHFIIQEYLTNPLLLASMDNRKFHIRCYVVCRGDLQVFVYDRMLALFAAKPFVPLDPYAYSVTDLKDLECHLTNTCLQSKKKDKDSSVLEFDSIEEIPNERKSNIKEQIHSITNDVFLAAVNVNRLNFQPLPNAFETYGVDFLIDSNYEVKLLEINAFPDFKQTGKDLKNLIDELFDDTVKYCVTPIFNENRNKTDDETDPNFVKVIDYTSNGW
binds		Lsm3 (protein, UniProt P57743 1-89) METPLDLLKLNLDERVYIKLRGARTLVGTLQAFDSHCNIVLSDAVETIYQLNNEELSESERRCEMVFIRGDTVTLISTPSEDDDGAVEI
binds	binds	Lsm2 (protein, UniProt P38203 1-95) MLFFSFFKTLVDQEVVVELKNDIEIKGTLQSVDQFLNLKLDNISCTDEKKYPHLGSVRNIFIRGSTVRYVYLNKNMVDTNLLQDATRREVMTERK

These are yes or no findings as the source states them, for the method shown. Binding seen in cells or lysates may run through a third protein. These calls come from enrichment with a bait or labelling near it, and not all partners need be listed.
